Results are given in words; binding and its absence hold for the method and conditions named. For part of these data: In cells and extracts the contact can be indirect. Some results given as binding are weak or reduced against the parent protein; the word gives no strength. For part of these data: Sequences can lack the tags named with a protein. Values belong to the substance of their own block, whether it stands above or below them.
Columns and labels:
[1] = biological target: T1, HA-tagged HBP1 (UniProt O60381); test: co-IP; 293T cells co-transfected with HA-HBP1 and FLAG-MDM2; IP with anti-FLAG or anti-HA, blot with anti-HA or anti-FLAG; IP lysis buffer 25 mM Tris-HCl pH 7.4, 150 mM NaCl, 1% NP-40, 1 mM EDTA, 5% glycerol; overnight at 4 °C
T1 sequence: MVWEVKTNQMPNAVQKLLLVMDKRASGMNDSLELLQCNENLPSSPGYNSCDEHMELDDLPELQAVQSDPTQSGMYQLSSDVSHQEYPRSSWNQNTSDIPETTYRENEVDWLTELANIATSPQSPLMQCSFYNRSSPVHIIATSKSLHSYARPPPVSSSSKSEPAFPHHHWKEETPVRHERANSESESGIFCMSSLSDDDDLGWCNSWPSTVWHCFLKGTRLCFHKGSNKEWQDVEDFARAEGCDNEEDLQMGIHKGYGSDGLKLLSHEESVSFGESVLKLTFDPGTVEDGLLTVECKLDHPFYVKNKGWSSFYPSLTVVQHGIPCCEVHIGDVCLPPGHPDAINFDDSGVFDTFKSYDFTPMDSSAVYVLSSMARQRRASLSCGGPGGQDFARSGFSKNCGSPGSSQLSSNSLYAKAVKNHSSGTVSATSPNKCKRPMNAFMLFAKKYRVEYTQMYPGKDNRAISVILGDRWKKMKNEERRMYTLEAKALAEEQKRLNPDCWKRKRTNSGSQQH

The chains behind the UniProt entries cited, without tags or fusion partners.
UniProt O60934: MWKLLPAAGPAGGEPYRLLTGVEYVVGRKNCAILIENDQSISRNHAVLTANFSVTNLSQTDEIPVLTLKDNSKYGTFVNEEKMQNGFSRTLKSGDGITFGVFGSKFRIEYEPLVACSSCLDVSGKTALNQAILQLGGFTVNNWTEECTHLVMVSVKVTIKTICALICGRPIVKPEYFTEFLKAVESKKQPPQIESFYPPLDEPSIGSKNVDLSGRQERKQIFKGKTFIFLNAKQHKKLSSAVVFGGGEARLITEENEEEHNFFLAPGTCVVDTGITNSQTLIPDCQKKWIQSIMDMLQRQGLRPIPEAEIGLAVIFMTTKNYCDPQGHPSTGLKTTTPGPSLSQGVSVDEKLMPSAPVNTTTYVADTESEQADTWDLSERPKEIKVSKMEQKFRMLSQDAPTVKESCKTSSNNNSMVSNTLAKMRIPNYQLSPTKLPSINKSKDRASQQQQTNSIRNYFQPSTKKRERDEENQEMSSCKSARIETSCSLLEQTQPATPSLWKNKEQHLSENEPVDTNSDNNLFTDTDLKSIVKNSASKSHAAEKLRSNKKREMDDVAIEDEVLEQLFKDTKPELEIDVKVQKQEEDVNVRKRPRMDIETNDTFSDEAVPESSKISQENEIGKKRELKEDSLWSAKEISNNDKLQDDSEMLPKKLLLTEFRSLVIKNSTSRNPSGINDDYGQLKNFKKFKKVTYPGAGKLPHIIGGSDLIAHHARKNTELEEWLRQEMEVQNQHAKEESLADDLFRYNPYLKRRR
UniProt Q00987: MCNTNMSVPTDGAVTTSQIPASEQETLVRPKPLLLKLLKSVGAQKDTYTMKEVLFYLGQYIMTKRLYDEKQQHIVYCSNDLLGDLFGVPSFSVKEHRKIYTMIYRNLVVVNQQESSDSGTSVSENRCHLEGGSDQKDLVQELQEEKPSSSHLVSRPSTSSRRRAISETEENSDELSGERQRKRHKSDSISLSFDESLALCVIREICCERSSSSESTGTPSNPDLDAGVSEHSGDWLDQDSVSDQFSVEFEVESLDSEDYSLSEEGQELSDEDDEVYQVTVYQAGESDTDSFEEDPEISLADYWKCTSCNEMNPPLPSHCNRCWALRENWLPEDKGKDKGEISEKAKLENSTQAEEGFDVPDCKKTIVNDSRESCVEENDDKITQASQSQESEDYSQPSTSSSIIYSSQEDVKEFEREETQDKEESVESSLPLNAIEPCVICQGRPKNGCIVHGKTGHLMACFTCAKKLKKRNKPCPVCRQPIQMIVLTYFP

[2] = biological target: SFB-Nbs1 (UniProt O60934); test: co-IP; H1299 cells co-transfected with SFB-Nbs1 and FLAG-MDM2 with or without HA-HBP1; capture on Streptavidin Sepharose, western blot
[3] = biological target: T1, HA-tagged HBP1; test: co-IP; H1299 cells co-transfected with HA-HBP1 and FLAG-MDM2, without ionizing radiation; IP with anti-FLAG or anti-HA, blot with anti-HA or anti-FLAG
[4] = biological target: T2, endogenous HBP1 (human (endogenous in H1299)) (UniProt O60381); test: co-IP; endogenous proteins of p53-null H1299 cells; IP with anti-HBP1, anti-MDM2 or anti-MDM4, blot with MDM2, MDM4 or HBP1 antibody; IP lysis buffer
T2 sequence: T1 sequence

[5] = biological target: T3, N-terminal GST-tagged full-length HBP1 (UniProt O60381); test: pull-down; purified GST-tagged proteins or GST alone on glutathione-Sepharose beads overnight at 4 °C, His-tagged proteins added for 4 h at 4 °C, three washes, elution, western blot; both purified
T3 sequence: T1 sequence

[6] = biological target: FLAG-tagged MDM2 (Mouse double minute 2) (UniProt Q00987); test: co-IP; H1299 cells transfected with FLAG-MDM2 with or without HA-HBP1; IP with anti-FLAG, blot with anti-Nbs1

binding [1]: binds
binding [2]: binds
binding [3]: binds
Substance: FLAG-tagged MDM2 (Mouse double minute 2) (from UniProt Q00987 1-491)

binding [4]: binds
Substance: endogenous MDM2 (from UniProt Q00987 1-491)

binding [5]: binds
Substance: His-tagged MDM2 (from UniProt Q00987 1-491)

binding [6]: binds
Substance: endogenous Nbs1 (from UniProt O60934 1-754)

Reference: article PMC6756050
